These results are taken from patent publication US20250074999A1 (PENTIXAPHARM, published 2025).

No constants are given. Whether binding was seen depends on the method and setting. Some entries that bind do so weakly or less than the wild type.

This assay addresses T1, Tn-LYPD3-STP-ECD (NM-F9-derived LYPD3-STP-ECD digested with β-galactosidase) (human) (UniProt O95274).
T1 sequence (chain, O-glycans mainly Tn (GalNAcα1-) on Ser/Thr after β-galactosidase): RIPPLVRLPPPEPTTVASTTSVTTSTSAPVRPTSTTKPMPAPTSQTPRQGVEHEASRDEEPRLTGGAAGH
As to the kind of experiment: ELISA and flow cytometry (FIGS. 14, 15 and 16). On the technique in general: In an ELISA, binding on a coated surface is turned into a signal by an enzyme label.

B1: 21E9-222 (antibody, V domains shown)
VH: EVQLVESGGGLVQPGGSLRLSCAASGFDFSNYYYMCWVRQAPGKGLEWVSCIAAGSGGYTYYASWAKGRFTISRDNSKNTLYLQMNSLRAEDTAVYYCASSGDYKGFNLWGQGTLVTVS
VL: DIVMTQSPSSLSASVGDRVTITCQASQSISSYLAWYQQKPGKPPKLLIYGASNLASGVPSRFSGSGSGTDFTLTISSLQPEDVATYYCQGYYYSFSDIFAFGGGTKVEI
notes: Humanized 21E9; also called humanized aLYPD3 antibody 21E9-222
As for B1, the binding result is recorded as “binds”.

B2: 21E9-227 (antibody, V domains shown)
VH: QVQLVESGGGLVKPGGSLRLSCAASGFDFSNYYYMCWIRQAPGKGLEWVSCIAAGSGGYTYYASWAKGRFTISRDNAKNSLYLQMNSLRAEDTAVYYCASSGDYKGFNLWGQGTLVTVS
VL: AIRIAQSPSSLSASTGDRVTITCQASQSISSYLAWYQQKPGKAPKLLIYGASNLASGVPSRFSGSGSGTDFTLTISCLQSEDFATYYCQGYYYSFSDIFAFGQGTKVEI
notes: Humanized 21E9; also called humanized aLYPD3 antibody 21E9-227
As for B2, the binding result was “binds”.

B3: 21E9-228 (antibody, V domains shown)
VH: QVQLQESGGGLVQPGGSLRLSCAASGFDFSNYYYMCWVRQAPGKGLEWVLCIAAGSGGYTYYASWAKGRFTISRDNSKNTLYLQMNSLRAEDTAIYYCASSGDYKGFNLWGQGTLVTVS
VL: AIRIAQSPSSLSASTGDRVTITCQASQSISSYLAWYQQKPGKAPKLLIYGASNLASGVPSRFSGSGSGTDFTLTISCLQSEDFATYYCQGYYYSFSDIFAFGQGTKVEI
notes: Humanized 21E9; also called humanized aLYPD3 antibody 21E9-228
Turning to B3, the binding result is recorded as “binds”.

B4: 21E9-219 (antibody, V domains shown)
VH: LVQLVESGGGLVKPGGSLRLSCAASGFDFSNYYYMCWIRQAPGKGLEWVSCIAAGSGGYTYYASWAKGRFTISRDNAKNSLYLQMNSLRAEDTAVWYCASSGDYKGFNLWGQGTLVTVS
VL: DIVMTQSPSSLSASVGDRVTITCQASQSISSYLAWYQQKPGKPPKLLIYGASNLASGVPSRFSGSGSGTDFTLTISSLQPEDVATYYCQGYYYSFSDIFAFGGGTKVEI
notes: Humanized 21E9; also called humanized aLYPD3 antibody 21E9-219
As for B4, the binding entry is on record as “binds”.

B5: 21E9-226 (antibody, V domains shown)
VH: EVQLVESGGGLVQPGGSLRLSCAASGFDFSNYYYMCWVRQAPGKGLEWVSCIAAGSGGYTYYASWAKGRFTISRDNSKNTLYLQMNSLRAEDTAVYYCASSGDYKGFNLWGQGTLVTVS
VL: EIVMTQSPSSLSASVGDRVTITCQASQSISSYLAWYQQKPGKPPKLLIYGASNLASGVPSRFSGSGSGTDFTLTISSLQPEDVATYYCQGYYYSFSDIFAFGGGTKLEI
notes: Humanized 21E9; also called humanized aLYPD3 antibody 21E9-226
Regarding B5, the binding result is reported as “binds”.

B6: 21E9-220 (antibody, V domains shown)
VH: QVQLQESGGGLVQPGGSLRLSCAASGFDFSNYYYMCWVRQAPGKGLEWVLCIAAGSGGYTYYASWAKGRFTISRDNSKNTLYLQMNSLRAEDTAIYYCASSGDYKGFNLWGQGTLVTVS
VL: DIVMTQSPSSLSASVGDRVTITCQASQSISSYLAWYQQKPGKPPKLLIYGASNLASGVPSRFSGSGSGTDFTLTISSLQPEDVATYYCQGYYYSFSDIFAFGGGTKVEI
notes: Humanized 21E9; also called humanized aLYPD3 antibody 21E9-220
In the case of B6, the binding entry is “binds”.

B7: 21E9-225 (antibody, V domains shown)
VH: EVQLVESGGGLVQPGGSLRLSCAASGFDFSNYYYMCWVRQAPGKGLEWVSCIAAGSGGYTYYASWAKGRFTISRDNSKNTLYLQMNSLRAEDTAVYYCASSGDYKGFNLWGQGTLVTVS
VL: AIRIAQSPSSLSASTGDRVTITCQASQSISSYLAWYQQKPGKAPKLLIYGASNLASGVPSRFSGSGSGTDFTLTISCLQSEDFATYYCQGYYYSFSDIFAFGQGTKVEI
notes: Humanized 21E9; also called humanized aLYPD3 antibody 21E9-225
Consider B7, for which the binding entry is given as “binds”.

B8: 21E9-221 (antibody, V domains shown)
VH: EVQLVESGGGLVQPGGSLRLSCAASGFDFSNYYYMCWVRQAPGKGLEWVSCIAAGSGGYTYYASWAKGRFTISRDNSKNTLYLQMNSLRAEDTAVYYCASSGDYKGFNLWGQGTMVTVS
VL: DIVMTQSPSSLSASVGDRVTITCQASQSISSYLAWYQQKPGKPPKLLIYGASNLASGVPSRFSGSGSGTDFTLTISSLQPEDVATYYCQGYYYSFSDIFAFGGGTKVEI
notes: Humanized 21E9; also called humanized aLYPD3 antibody 21E9-221
As to B8, the binding entry is listed as “binds”.

B9: 21E9-224 (antibody, V domains shown)
VH: EVQLVESGGGLVQPGGSLRLSCAASGFDFSNYYYMCWVRQAPGKGLEWVSCIAAGSGGYTYYASWAKGRFTISRDNSKNTLYLQMNSLRAEDTAVYYCASSGDYKGFNLWGQGTLVTVS
VL: EIVMTQSPSSLSASVGDRVTITCQASQSISSYLAWYQQKPGKAPKLLIYGASNLASGVPSRFSGSGSGTDFTLTISSLQPEDFATYYCQGYYYSFSDIFAFGGGTKVEI
notes: Humanized 21E9; also called humanized aLYPD3 antibody 21E9-224
In the case of B9, the binding entry was “binds”.
